# About 100 (0.027%) of roughly 370,000 compounds were called active. Inconclusive means that the source gave no clear call. Such entries were picked first, then a sample of the others. The call rests on the fitted dose curve; in most records, active means well fitted inhibition curve with a large enough effect in the polarisation, with a control signal flat; inconclusive means small, poorly fitted or top-dose-only effect, or effect the other way, or a change in a side signal; inactive means no such curve, though single readings can be large or run the other way; the % refers to the polarisation. Potencies beside an inconclusive call are fits to weak or partial responses and may not hold up. “Side channel” marks fits to a control or component signal instead of the main read-out.
# The chains behind the UniProt entries cited, without tags or fusion partners. Where a name states a change or a piece, a line headed by the entry shows the natural chain unless it says otherwise.
# UniProt P11308: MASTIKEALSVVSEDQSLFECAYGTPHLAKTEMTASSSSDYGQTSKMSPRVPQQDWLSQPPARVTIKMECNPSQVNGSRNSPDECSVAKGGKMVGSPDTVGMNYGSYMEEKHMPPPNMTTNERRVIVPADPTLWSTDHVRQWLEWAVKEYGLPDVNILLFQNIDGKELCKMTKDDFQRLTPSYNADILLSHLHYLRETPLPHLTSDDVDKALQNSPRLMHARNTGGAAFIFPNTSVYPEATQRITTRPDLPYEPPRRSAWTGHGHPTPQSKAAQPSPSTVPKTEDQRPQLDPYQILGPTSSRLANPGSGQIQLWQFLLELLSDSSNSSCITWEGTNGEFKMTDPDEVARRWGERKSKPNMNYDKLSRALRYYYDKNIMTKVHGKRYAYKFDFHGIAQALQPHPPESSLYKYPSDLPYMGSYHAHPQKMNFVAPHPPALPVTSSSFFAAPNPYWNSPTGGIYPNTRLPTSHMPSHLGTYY
# Target: Transcriptional regulator ERG (Homo sapiens) (UniProt P11308)
# Assay: qHTS for Small Molecule Inhibitors of the ERG Ets/DNA interaction
# Details: fluorescence polarization, His-ERG Ets domain / labelled DNA; series mostly up to 76.9 µM
# Summary of the method: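 His-tagged ERG Ets domain (1 uM in the protein solution; 300mM KCl, 50mM Tris-HCl, 1mM EDTA, 1mM DTT, pH 7.5) received compound, then a probe mix of 5 nM fluorescein-DNA and 100nM Texas-615-DNA. Fluorescence polarization was read for both dyes.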
# Potency means the concentration at half of the fitted maximal effect.
row,Compound,Potency
1,COc1ccc(NC(=O)C2CCCN2S(=O)(=O)c2ccc(C)cc2)cc1 (configuration not stated),"inconclusive: 0.891 µM [fluorescent, side channel, partial curve, poor fit]"
2,COc1ccc(C(c2c(C)n(C)n(-c3ccccc3)c2=O)c2c(C)n(C)n(-c3ccccc3)c2=O)c(OC)c1OC,"inconclusive: 7.94 µM [inhibitor, single point]"
3,CN(C)c1nc2n(c(=S)n1)CCS2,"inconclusive: 28.2 µM [inhibitor, partial curve, poor fit]"
4,Cc1ccc(S(=O)(=O)N2CCN(C3CC4CCC3C4)CC2)cc1 (configuration not stated),inactive
5,O=C(Nc1cccnc1)OC1CCCCC1,"inconclusive: 7.08 µM [quencher, side channel, single point]"
6,O=C(N=C1N=C2C=CC=CN2Cc2ccccc21)c1ccc(S(=O)(=O)N2CCOCC2)cc1,inactive
7,CCC(C)NCCCOc1ccc(Cl)cc1C(C)(C)C (configuration not stated),inactive
8,C[C@]12CC[C@@H]3c4ccc(O)cc4CC[C@H]3[C@@H]1CC[C@@H]2O,inactive
9,O=C1CCc2ccc(NC(=O)C3CC3)cc2N1,"inconclusive: 50.1 µM [quencher, side channel, single point]"
10,COc1ccccc1C/C(N)=N/OC(=O)COc1ccc(C)cc1C,"inconclusive: 20 µM [inhibitor, partial curve, poor fit]"
11,O=C(COc1ccc(F)cc1)Nc1nnc(-c2ccncc2)s1,"inconclusive: 22.4 µM [inhibitor, partial curve, poor fit]"
12,CC(=O)Nc1ccc(NC(=O)Cn2c(=O)n(-c3ccccc3)c(=O)c3oc4ccccc4c32)cc1,"inconclusive: 39.8 µM [inhibitor, partial curve, poor fit]"
13,CCc1nnc(NC(=O)c2ccc(-c3ccccc3F)o2)s1,"inconclusive: 2 µM [quencher, side channel, full curve, poor fit]"
14,Nc1ccc(-c2c3ccc(=O)cc-3oc3cc(O)ccc23)c(C(=O)O)c1,"inconclusive: 6.31 µM [inhibitor, partial curve, poor fit]"
15,NC(=O)Nc1ccc(C(=O)OCC(=O)NC2CCCc3ccccc32)cc1 (configuration not stated),"inconclusive: 6.31 µM [inhibitor, single point]"
16,CCn1cc(C(=O)NCc2ccc(F)cc2)c(=O)c2cc(S(=O)(=O)N(C)C)ccc21,"inconclusive: 22.4 µM [quencher, side channel, partial curve, poor fit]"
17,CCOc1ccc2nc(NCCNS(=O)(=O)c3ccccc3)c(C#N)cc2c1,"inconclusive: 25.1 µM [inhibitor, single point]"
18,COc1ccc(S(=O)(=O)NCCCN2CCOCC2)cc1F,"inconclusive: 50.1 µM [inhibitor, single point]"
19,CCc1ccc(NC(=O)N(Cc2cn(CC)c3ccccc23)C2CCCCC2)cc1,"inconclusive: 44.7 µM [quencher, side channel, single point]"
20,COc1cc(/C=N/N2C(=O)C3C4C=CC(CC4)C3C2=O)ccc1O (configuration not stated),"inconclusive: 50.1 µM [inhibitor, single point]"
21,CCOC(=O)c1ccc(-c2c(-c3ccc4c(c3)OCO4)noc2-c2ccsc2)cc1F,inactive

row,Compound,Potency
1,CCCCNc1c2c3c(cccc3n(C)c1=O)C(=O)c1ccccc1-2,"inconclusive: 35.5 µM [inhibitor, partial curve, poor fit]"
2,FC(F)(F)C1=Nc2cccc3cccc(c23)N1,inactive
3,O=S(=O)(Nc1cc2nc3ccccc3nc2n1Cc1ccccc1)c1ccc(Cl)cc1,inactive
4,O=C(c1cnn(-c2ccccc2)c1)c1cc(F)ccc1O,"inconclusive: 56.2 µM [inhibitor, partial curve, poor fit]"
5,O=c1oc2ccc(Cl)cc2nc1/C=C(\O)c1cccs1,inactive
6,COc1ccc(/C=N/Nc2cc(N3CCOCC3)ncn2)c(OC)c1,"inconclusive: 50.1 µM [inhibitor, single point]"
7,O=C(NCc1cccnc1)c1ccccc1-c1nc(-c2ccccc2)no1,"inconclusive: 39.8 µM [inhibitor, single point]"
8,COc1ccc(S(=O)(=O)N2CCCC2C(=O)n2nc(C)cc2C)cc1 (configuration not stated),"inconclusive: 1 µM [quencher, side channel, full curve, poor fit]"
9,Cc1cccc(NS(=O)(=O)c2ccc3c(c2)OCC(C(=O)N2CCCC2)O3)c1C (configuration not stated),inactive
10,COC(=O)NC1c2ccccc2Oc2ccccc21,inactive
11,COc1cccc2c1cc1c(=O)n(CC(=O)N3CCCC3)nc(C)n12,"inconclusive: 28.2 µM [inhibitor, single point]"
12,COC(=O)[C@H](CCSC)NC(=O)Cn1cnc2c(OCc3ccccc3)ncnc21,inactive
13,Cc1cccc(Sc2ccc([N+](=O)[O-])cc2[N+](=O)[O-])n1,"inconclusive: 10 µM [quencher, side channel, partial curve, poor fit]"
14,O=C1/C(=C/c2ccc(O)cc2)COc2ccccc21,inactive
15,C=CCn1c(C)cc(C(=O)CSc2ccc(NC(C)=O)cc2)c1C,inactive
16,CCN(CC)c1ccc2cc(-c3nc(-c4ccc(OC)cc4)cs3)c(=O)oc2c1,"inconclusive: 50.1 µM [inhibitor, single point]"
17,CCC(CC)COC(=O)C(C#N)c1nc2ccccc2nc1N1CCN(CC)CC1 (configuration not stated),"inconclusive: 63.1 µM [inhibitor, single point]"
18,Cc1ccccc1OCc1nc(-c2ccc(NC(=O)c3ccc4c(c3)OCO4)cc2)no1,"inconclusive: 100 µM [inhibitor, single point]"
19,CCOc1ccc(N/C(SCc2cccc([N+](=O)[O-])c2)=C(/C#N)C(N)=O)cc1,"inconclusive: 3.55 µM [inhibitor, partial curve, poor fit]"
20,COc1ccc2oc(=O)c(-c3csc(Nc4ccc(O)cc4)n3)cc2c1,"inconclusive: 28.2 µM [quencher, side channel, partial curve, poor fit]"
21,CC[n+]1c(C)cc(C)n1-c1ccccc1,inactive

# A different layout for some results above:
row | Compound | Potency
3 | CN(C)c1nc2n(c(=S)n1)CCS2 | inconclusive: 28.2 µM [inhibitor, partial curve, poor fit]
4 | Cc1ccc(S(=O)(=O)N2CCN(C3CC4CCC3C4)CC2)cc1 (configuration not stated) | inactive
5 | O=C(Nc1cccnc1)OC1CCCCC1 | inconclusive: 7.08 µM [quencher, side channel, single point]
6 | O=C(N=C1N=C2C=CC=CN2Cc2ccccc21)c1ccc(S(=O)(=O)N2CCOCC2)cc1 | inactive
7 | CCC(C)NCCCOc1ccc(Cl)cc1C(C)(C)C (configuration not stated) | inactive
8 | C[C@]12CC[C@@H]3c4ccc(O)cc4CC[C@H]3[C@@H]1CC[C@@H]2O | inactive
9 | O=C1CCc2ccc(NC(=O)C3CC3)cc2N1 | inconclusive: 50.1 µM [quencher, side channel, single point]
10 | COc1ccccc1C/C(N)=N/OC(=O)COc1ccc(C)cc1C | inconclusive: 20 µM [inhibitor, partial curve, poor fit]
11 | O=C(COc1ccc(F)cc1)Nc1nnc(-c2ccncc2)s1 | inconclusive: 22.4 µM [inhibitor, partial curve, poor fit]
12 | CC(=O)Nc1ccc(NC(=O)Cn2c(=O)n(-c3ccccc3)c(=O)c3oc4ccccc4c32)cc1 | inconclusive: 39.8 µM [inhibitor, partial curve, poor fit]
13 | CCc1nnc(NC(=O)c2ccc(-c3ccccc3F)o2)s1 | inconclusive: 2 µM [quencher, side channel, full curve, poor fit]

# Reference: PubChem BioAssay AID624246 (National Center for Advancing Translational Sciences (NCATS), 2012)
